Our source for the binding values is paper PMC2694809.

No constants are given. Whether binding was seen depends on the method and setting. In cells and extracts the contact can be indirect. Some entries that bind do so weakly or less than the wild type.

Test in all cases: co-IP; cells surface biotinylated, lysed in 1% Brij97 in D-PBS with Ca and Mg; 2 h at 4°C with mAbs (5A6, MT81, MT81w, TS151) on protein A-sepharose; non-reducing SDS-PAGE, blot with peroxidase-conjugated streptavidin
Assay [1] concerns the target T1, CD151 (human (endogenous in Huh-7)) (UniProt P48509).
T1 sequence (chain, biotin (cell surface biotinylation with EZ-link-Sulfo-NHS-LC-biotin)): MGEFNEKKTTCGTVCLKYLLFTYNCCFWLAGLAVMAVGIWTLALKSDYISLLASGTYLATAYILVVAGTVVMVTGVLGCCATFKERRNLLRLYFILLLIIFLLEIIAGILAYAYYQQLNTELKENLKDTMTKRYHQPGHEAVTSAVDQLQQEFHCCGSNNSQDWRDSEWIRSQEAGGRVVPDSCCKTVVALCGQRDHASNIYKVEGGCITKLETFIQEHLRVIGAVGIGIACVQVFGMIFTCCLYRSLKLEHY

The target in assay [2] is T2, human CD81 (human (endogenous in Huh-7)) (UniProt P60033).
T2 sequence (chain, biotin (cell surface biotinylation with EZ-link-Sulfo-NHS-LC-biotin)): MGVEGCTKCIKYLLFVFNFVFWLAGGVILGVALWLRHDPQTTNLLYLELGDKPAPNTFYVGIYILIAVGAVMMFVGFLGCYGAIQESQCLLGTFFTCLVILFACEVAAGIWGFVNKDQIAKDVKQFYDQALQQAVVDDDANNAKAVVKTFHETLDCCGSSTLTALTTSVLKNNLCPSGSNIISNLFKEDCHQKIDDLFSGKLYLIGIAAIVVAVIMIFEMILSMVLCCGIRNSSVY

The next assay addresses T3, mouse CD81 (mouse) (UniProt P35762).
T3 sequence (chain, biotin (cell surface biotinylation with EZ-link-Sulfo-NHS-LC-biotin)): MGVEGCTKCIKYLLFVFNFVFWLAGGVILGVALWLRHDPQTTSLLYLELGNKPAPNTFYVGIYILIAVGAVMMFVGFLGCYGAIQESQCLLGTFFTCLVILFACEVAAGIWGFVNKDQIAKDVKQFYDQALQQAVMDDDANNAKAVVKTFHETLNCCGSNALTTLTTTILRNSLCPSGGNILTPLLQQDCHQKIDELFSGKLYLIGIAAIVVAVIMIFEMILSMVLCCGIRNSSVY

B1: human CD81 (protein, UniProt P60033 1-236)
chain: MGVEGCTKCIKYLLFVFNFVFWLAGGVILGVALWLRHDPQTTNLLYLELGDKPAPNTFYVGIYILIAVGAVMMFVGFLGCYGAIQESQCLLGTFFTCLVILFACEVAAGIWGFVNKDQIAKDVKQFYDQALQQAVVDDDANNAKAVVKTFHETLDCCGSSTLTALTTSVLKNNLCPSGSNIISNLFKEDCHQKIDDLFSGKLYLIGIAAIVVAVIMIFEMILSMVLCCGIRNSSVY
modifications: biotin (cell surface biotinylation with EZ-link-Sulfo-NHS-LC-biotin)
In the case of B1, in assay [1], the binding entry was “binds”.

B2: EWI-2 (protein, UniProt Q969P0 28-613)
chain: REVLVPEGPLYRVAGTAVSISCNVTGYEGPAQQNFEWFLYRPEAPDTALGIVSTKDTQFSYAVFKSRVVAGEVQVQRLQGDAVVLKIARLQAQDAGIYECHTPSTDTRYLGSYSGKVELRVLPDVLQVSAAPPGPRGRQAPTSPPRMTVHEGQELALGCLARTSTQKHTHLAVSFGRSVPEAPVGRSTLQEVVGIRSDLAVEAGAPYAERLAAGELRLGKEGTDRYRMVVGGAQAGDAGTYHCTAAEWIQDPDGSWAQIAEKRAVLAHVDVQTLSSQLAVTVGPGERRIGPGEPLELLCNVSGALPPAGRHAAYSVGWEMAPAGAPGPGRLVAQLDTEGVGSLGPGYEGRHIAMEKVASRTYRLRLEAARPGDAGTYRCLAKAYVRGSGTRLREAASARSRPLPVHVREEGVVLEAVAWLAGGTVYRGETASLLCNISVRGGPPGLRLAASWWVERPEDGELSSVPAQLVGGVGQDGVAELGVRPGGGPVSVELVGPRSHRLRLHSLGPEDEGVYHCAPSAWVQHADYSWYQAGSARSGPVTVYPYMHALDTLFVPLLVGTGVALVTGATVLGTITCCFMKRLRKR
modifications: biotin (cell surface biotinylation with EZ-link-Sulfo-NHS-LC-biotin)
In the case of B2, the binding entry (in assay [2]; in the assay with mouse CD81 (mouse)) was “binds” in each case.

B3: EWI-F (protein, UniProt Q9P2B2 26-879)
chain: VPTATLVRVVGTELVIPCNVSDYDGPSEQNFDWSFSSLGSSFVELASTWEVGFPAQLYQERLQRGEILLRRTANDAVELHIKNVQPSDQGHYKCSTPSTDATVQGNYEDTVQVKVLADSLHVGPSARPPPSLSLREGEPFELRCTAASASPLHTHLALLWEVHRGPARRSVLALTHEGRFHPGLGYEQRYHSGDVRLDTVGSDAYRLSVSRALSADQGSYRCIVSEWIAEQGNWQEIQEKAVEVATVVIQPSVLRAAVPKNVSVAEGKELDLTCNITTDRADDVRPEVTWSFSRMPDSTLPGSRVLARLDRDSLVHSSPHVALSHVDARSYHLLVRDVSKENSGYYYCHVSLWAPGHNRSWHKVAEAVSSPAGVGVTWLEPDYQVYLNASKVPGFADDPTELACRVVDTKSGEANVRFTVSWYYRMNRRSDNVVTSELLAVMDGDWTLKYGERSKQRAQDGDFIFSKEHTDTFNFRIQRTTEEDRGNYYCVVSAWTKQRNNSWVKSKDVFSKPVNIFWALEDSVLVVKARQPKPFFAAGNTFEMTCKVSSKNIKSPRYSVLIMAEKPVGDLSSPNETKYIISLDQDSVVKLENWTDASRVDGVVLEKVQEDEFRYRMYQTQVSDAGLYRCMVTAWSPVRGSLWREAATSLSNPIEIDFQTSGPIFNASVHSDTPSVIRGDLIKLFCIITVEGAALDPDDMAFDVSWFAVHSFGLDKAPVLLSSLDRKGIVTTSRRDWKSDLSLERVSVLEFLLQVHGSEDQDFGNYYCSVTPWVKSPTGSWQKEAEIHSKPVFITVKMDVLNAFKYPLLIGVGLSTVIGLLSCLIGYCSSHWCCKKEVQETRRERRRLMSMEMD
modifications: biotin (cell surface biotinylation with EZ-link-Sulfo-NHS-LC-biotin)
As to B3, the binding entry (in assay [2]; with mouse CD81 (mouse)) was “binds” in each case.
